We go through 1 substance from PMC11569202.

Protein sequences, listed by entry. Tags and fused reporters are not part of them.
UniProt P35579: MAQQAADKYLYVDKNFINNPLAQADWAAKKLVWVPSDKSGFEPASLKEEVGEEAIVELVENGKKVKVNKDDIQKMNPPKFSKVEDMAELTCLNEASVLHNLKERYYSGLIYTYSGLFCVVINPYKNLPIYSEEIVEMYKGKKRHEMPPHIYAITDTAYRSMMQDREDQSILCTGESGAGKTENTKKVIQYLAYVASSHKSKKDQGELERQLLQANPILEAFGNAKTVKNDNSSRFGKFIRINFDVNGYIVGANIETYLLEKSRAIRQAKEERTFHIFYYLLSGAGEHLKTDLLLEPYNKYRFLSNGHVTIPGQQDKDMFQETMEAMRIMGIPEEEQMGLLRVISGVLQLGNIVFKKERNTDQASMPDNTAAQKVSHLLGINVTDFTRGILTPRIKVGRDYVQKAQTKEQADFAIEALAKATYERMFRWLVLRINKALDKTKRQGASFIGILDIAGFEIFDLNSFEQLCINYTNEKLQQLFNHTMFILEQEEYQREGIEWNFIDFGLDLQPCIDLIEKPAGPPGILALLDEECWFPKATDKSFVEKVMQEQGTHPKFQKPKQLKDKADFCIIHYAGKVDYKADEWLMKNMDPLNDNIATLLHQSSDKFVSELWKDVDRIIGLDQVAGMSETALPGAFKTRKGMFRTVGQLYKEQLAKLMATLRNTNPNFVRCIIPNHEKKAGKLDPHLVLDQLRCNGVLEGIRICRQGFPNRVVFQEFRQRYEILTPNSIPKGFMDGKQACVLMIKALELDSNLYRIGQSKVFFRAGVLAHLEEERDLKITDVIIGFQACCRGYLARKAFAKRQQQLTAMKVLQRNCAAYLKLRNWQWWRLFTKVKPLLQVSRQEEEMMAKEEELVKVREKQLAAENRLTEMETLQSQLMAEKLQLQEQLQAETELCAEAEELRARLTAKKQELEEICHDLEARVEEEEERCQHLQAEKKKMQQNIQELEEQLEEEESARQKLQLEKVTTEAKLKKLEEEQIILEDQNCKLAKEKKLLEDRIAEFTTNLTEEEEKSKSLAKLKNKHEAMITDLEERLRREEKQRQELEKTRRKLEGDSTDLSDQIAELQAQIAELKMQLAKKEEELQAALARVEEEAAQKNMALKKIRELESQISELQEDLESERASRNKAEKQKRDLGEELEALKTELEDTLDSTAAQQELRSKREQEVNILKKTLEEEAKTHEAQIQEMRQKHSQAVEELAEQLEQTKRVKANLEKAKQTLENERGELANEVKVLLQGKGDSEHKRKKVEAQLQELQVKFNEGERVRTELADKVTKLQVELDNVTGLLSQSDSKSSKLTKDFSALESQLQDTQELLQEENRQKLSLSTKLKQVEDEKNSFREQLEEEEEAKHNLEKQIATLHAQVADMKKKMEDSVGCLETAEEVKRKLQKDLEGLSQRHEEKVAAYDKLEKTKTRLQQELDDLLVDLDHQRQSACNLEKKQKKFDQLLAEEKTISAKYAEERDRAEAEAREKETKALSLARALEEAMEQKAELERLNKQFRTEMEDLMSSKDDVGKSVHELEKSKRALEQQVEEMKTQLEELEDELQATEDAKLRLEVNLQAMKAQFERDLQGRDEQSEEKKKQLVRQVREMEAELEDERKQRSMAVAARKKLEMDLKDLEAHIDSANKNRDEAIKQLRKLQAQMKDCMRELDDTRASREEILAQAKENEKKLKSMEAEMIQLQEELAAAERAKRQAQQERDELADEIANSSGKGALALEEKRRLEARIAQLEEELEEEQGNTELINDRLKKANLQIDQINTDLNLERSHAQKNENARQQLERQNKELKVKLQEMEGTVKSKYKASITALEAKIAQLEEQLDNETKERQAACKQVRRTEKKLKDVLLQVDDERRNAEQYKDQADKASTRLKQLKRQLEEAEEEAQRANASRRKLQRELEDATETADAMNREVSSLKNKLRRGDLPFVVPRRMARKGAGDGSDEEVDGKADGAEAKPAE

These are yes or no findings as the source states them, for the method shown. Binding seen in cells or lysates may run through a third protein. Some binding calls cover weakened binding; strength is not graded here. Where a sequence is shown, tags or fusion partners need not be part of it.

For this test, the target named is T1, Flag-FATS (fragile site-associated tumor suppressor) (UniProt Q96M02).
T1 sequence: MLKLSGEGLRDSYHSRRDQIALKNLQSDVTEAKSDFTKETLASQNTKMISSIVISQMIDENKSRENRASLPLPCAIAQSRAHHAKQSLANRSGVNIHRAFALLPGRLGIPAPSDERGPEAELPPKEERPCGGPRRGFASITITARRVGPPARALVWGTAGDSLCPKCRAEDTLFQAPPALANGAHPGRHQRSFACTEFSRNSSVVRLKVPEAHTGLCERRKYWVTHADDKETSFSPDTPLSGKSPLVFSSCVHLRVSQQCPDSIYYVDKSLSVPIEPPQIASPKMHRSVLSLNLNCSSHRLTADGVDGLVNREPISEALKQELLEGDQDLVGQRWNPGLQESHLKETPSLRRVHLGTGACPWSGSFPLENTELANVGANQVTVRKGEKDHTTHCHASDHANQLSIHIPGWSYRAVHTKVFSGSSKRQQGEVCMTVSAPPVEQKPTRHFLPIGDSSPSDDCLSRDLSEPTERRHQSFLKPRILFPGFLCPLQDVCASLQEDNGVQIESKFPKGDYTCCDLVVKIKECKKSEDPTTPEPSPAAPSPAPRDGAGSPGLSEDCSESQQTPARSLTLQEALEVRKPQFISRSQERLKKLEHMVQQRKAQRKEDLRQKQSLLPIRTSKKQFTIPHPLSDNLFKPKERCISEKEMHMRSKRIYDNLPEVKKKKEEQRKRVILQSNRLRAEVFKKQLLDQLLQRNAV
The experiment in a line: co-IP; MCF-7 and MDA-MB-231 cells transfected with Flag-FATS or empty plasmid; RIPA lysates (1 mg total protein) incubated overnight at 4 °C with beads conjugated to Flag, FATS or control IgG antibodies; western blot for MYH9. Background: Immunoblotting shows a protein as a band on a membrane.

Take “myosin heavy chain 9 (MYH9) (from UniProt P35579 1-1960)”: the binding entry is given as “binds”.
